Laboratory results taken from PubChem BioAssay AID540256 (National Center for Advancing Translational Sciences (NCATS), 2011).
“And” between values parts separate entries of the source, which are not always exact repeats. Identical values can stand only once. Out of some 300,000 compounds screened, about 3,700 (1.2%) were called active. Inconclusive means that the source gave no clear call. Such entries were picked first, then a sample of the others. The call rests on the fitted dose curve; tested in HEK293 cells. Where the call is inconclusive, the potency comes from a doubtful curve fit.

experiment: qHTS for Inhibitors of binding or entry into cells for Lassa Virus; details: Lassa virus pseudotype entry inhibition, cell reporter; activity change, negative = inhibition: at 37.9 µM (top of the series) unless noted; further: nearly all actives have a fitted effect of over 50% in size
On the % scale 0 is the no-effect control and ±100 the full control effect; potency means the concentration at half of the fitted maximal effect.

| Compound | Potency | activity change, negative = inhibition |
| --- | --- | --- |
| CC(NC(=O)c1cccs1)C(c1cccs1)N1CCN(c2ccccc2)CC1 (centres undefined) | inconclusive: 0.146 µM [inhibitor, full curve, poor fit] |  |
| CCC(CCc1ccccn1)C(=O)c1ccccc1 (centres undefined) | inconclusive: 0.199 µM [activator, full curve, poor fit] |  |
| CCN(CC)C(=O)COc1ccc(-c2nnc(Nc3ccc(OC)c(C(=O)NC)c3)c3ccccc23)cc1 | inconclusive: 35.5 µM [inhibitor, single point] |  |
| C=CCN(C(=O)c1csnn1)C(C(=O)NC1CCCC1)c1ccc(Cl)cc1 (centres undefined) | inconclusive: 0.1 µM [inhibitor, full curve, poor fit] |  |
| COc1cc2cc(CN(CCc3ccccc3C)C(=S)NCCCN(C)C)c(=O)[nH]c2cc1OC | inconclusive: 35.5 µM [inhibitor, single point] |  |
| CNS(=O)(=O)c1cc(NC(=O)c2cccc3cccnc23)ccc1C | inconclusive: 0.501 µM [inhibitor, full curve, poor fit] |  |
| CSc1ccc(CCNC(=O)C2CCN(c3ncnc4c3nc3n4CCCCC3)CC2)cc1 |  | inactive: 2.05% [at 46.1 µM] |
| COc1ccc(-c2cc(=Nc3cccc(C(=O)O)c3)c3cc(C)ccc3o2)cc1 | inconclusive: 35.5 µM [inhibitor, single point] |  |
| COc1ccccc1-c1nc(SCC(=O)Nc2ccc(C)c(C)c2)n[nH]1 |  | inactive: 6.16% [at 46.1 µM] |
| Cc1cc(N2CCOCC2)nc2ccc(NC(=S)NCCC(C)C)cc12 | inconclusive: 35.5 µM [inhibitor, single point] |  |
| Cc1ccccc1-n1c(C)cc(/C=C(\C#N)C(=O)NCC2CCCO2)c1C (centres undefined) | active: 14.6 µM |  |
| CC(=O)C(C)Oc1ccc2c3c(c(=O)oc2c1C)CCCC3 (centres undefined) |  | inactive: -29.2% |
| COCOCCn1cc(CN2CCS(=O)(=O)N(Cc3ccc(-c4ccc(Cl)cc4)cc3)C(CC(C)C)C2=O)nn1 (centres undefined) | inconclusive: 25 µM [inhibitor, single point] |  |
| CCC(=O)N1CCc2cc(Br)cc(S(=O)(=O)NCc3ccccc3)c21 |  | inactive: -3.06% [at 46.1 µM] |
| Cc1nc(-c2cccc(NC(=O)c3ccc(-n4nccc4C)cc3)c2)cs1 | inconclusive: 35.5 µM [inhibitor, single point] |  |
| CCN(CC)CCn1c2c(c(SCC(=O)Nc3nc(C)cs3)nc1=O)CCCC2 |  | inactive: 3.46% |
| CCN(c1ccccc1)S(=O)(=O)c1cc([N+](=O)[O-])ccc1N | inconclusive: 20 µM [inhibitor, partial curve, poor fit] |  |
| CCOP(=O)(OCC)C(C)(C)NC(=O)Nc1ccc(Cl)c(Cl)c1 | inconclusive: 35.5 µM [inhibitor, single point] |  |
| COc1cc(OC)c(OC)cc1CN1CCCC(C(=O)N2CCCC2)C1 (centres undefined) |  | inactive: 0.769% |
| CCCc1cc(N2CCN(c3ccc(OC)cc3)CC2)n2cnnc2n1 |  | inactive: -20.3% [at 46.1 µM] |
| CCCOc1cc(C)c(S(=O)(=O)NC2CC(C)(C)NC(C)(C)C2)cc1C | inconclusive: 3.98 µM [inhibitor, partial curve, poor fit] |  |
| CCCCOC(=O)c1ccc(NC(=O)c2cc(Cl)ccc2OC)cc1 |  | inactive: -16.5% |
| Cc1ccc(S(=O)(=O)N2CCC(=O)N(CCOCc3cccc(F)c3)CC2)cc1 | inactive and inconclusive: 99.5 nM [inhibitor, full curve, poor fit] |  |

| Compound | Potency | activity change, negative = inhibition |
| --- | --- | --- |
| Cc1cc(C)cc(NC(=O)CN2C(=O)NC(C)(c3ccccc3)C2=O)c1 (centres undefined) |  | inactive: -0.893% |
| Cc1ccc(S(=O)(=O)N(C)/N=C/c2ccc(N(C)C)cc2)cc1 |  | inactive: 0.769% |
| O=C(CSC1=NS(=O)(=O)c2cc(Cl)ccc2N1)Nc1ccccc1C(F)(F)F |  | inactive: -22.8% |
| CC(C)c1ccc(S(=O)(=O)c2cc3cc(Br)ccc3oc2=O)cc1 | inconclusive: 15.8 µM [inhibitor, single point] |  |
| Cc1cccc(CCNC(=O)c2c[nH]c3ccc(S(=O)(=O)Nc4ccccc4F)cc3c2=O)c1 | inconclusive: 35.5 µM [inhibitor, single point] |  |
| Fc1ccccc1Nc1ncnc2c1nc1n2CCCCC1 | inconclusive: 1.78 µM [activator, partial curve, poor fit] |  |
| O=C(NC1CC1)c1scc2c1OCCO2 | inconclusive: 0.282 µM [inhibitor, full curve, poor fit] |  |
| CC1(C)CC(=O)C(C=NCCc2ccc(O)cc2)=C(O)C1 |  | inactive: 2.02% |
| c1ccc(C(Cc2nc(-c3ccncc3)no2)c2ccccc2)cc1 | inconclusive: 14.6 µM [inhibitor, single point] |  |
| COc1cc(NC(=O)C2=C(N3CCOCC3)/C(=C\c3ccc(Cl)cc3Cl)CC2)cc(OC)c1OC | inconclusive: 2.51 µM [inhibitor, full curve] |  |
| Cc1ccccc1NC(=O)C(=O)NNC(=O)COc1ccc2ccccc2c1 |  | inactive: -1.1% [at 46.1 µM] |
| Cc1ccc(Nc2nc(-c3cccnc3)nc3ccccc23)cc1 | inconclusive: 11.2 µM [inhibitor, partial curve, poor fit] |  |
| CC(=O)Nc1ccc(C(=O)CSc2nnc(Cn3nnc4ccccc43)n2C)cc1 | inconclusive: 29.1 µM [activator, single point] |  |
| CC(=O)NCCc1cc2ccc(C)cc2[nH]c1=O |  | inactive: 3.81% |
| O=C(Nc1ccc(NC(=O)c2ccc(Cl)c(S(=O)(=O)N3CCOCC3)c2)cc1)c1ccccc1 | inconclusive: 5.62 µM [inhibitor, single point] |  |
| CCOCCCNCc1cn(-c2ccc(F)cc2F)nc1-c1ccccc1C | inconclusive: 0.708 µM [inhibitor, single point] |  |
| COC(=O)c1c(C)[nH]c(C(=O)OC(C)C(=O)N(C)C2CCCCC2)c1C (centres undefined) | inconclusive: 8.91 µM [inhibitor, partial curve] |  |
| CCN(CC)c1ccc(C2C(C(=O)OC(C)C)C(=O)CC(C)(O)C2C(=O)OC(C)C)cc1 (centres undefined) | inconclusive: 6.51 µM [inhibitor, full curve] |  |
| CCn1nc(C)c2c(-c3ccccc3)cc(=O)n(C(C)C(=O)NCCc3ccccc3)c21 (centres undefined) | inconclusive: 25.1 µM [inhibitor, single point] |  |
| COc1cc(CSc2nnnn2-c2ccc(C)cc2)cc(OC)c1OC | active: 3.66 µM |  |
| Cc1cccc(NC(=O)CCc2ccccc2)c1C | inconclusive: 1.26 µM [activator, single point] |  |
| Cc1c(C(=O)O)sc2ncnc(N3CCCCC3C)c12 (centres undefined) | inconclusive: 0.461 µM [inhibitor, full curve, poor fit] |  |
| Cc1ccc(/C(N)=N/OC(=O)Cc2cccc3ccccc23)cc1 | inconclusive: 17.8 µM [inhibitor, single point] |  |

| Compound | Potency | activity change, negative = inhibition |
| --- | --- | --- |
| COc1ccccc1OCC(=O)N1CCCCCCC1 | inconclusive: 35.5 µM [activator, single point] |  |
| CN(C)c1cc[n+](CC(=O)Nc2ccc(OC(F)F)cc2)cc1 |  | inactive: -16% [at 46.1 µM] |
| CCOC(=O)c1c(NC(=O)c2cc3ccccc3c(=O)o2)sc2c1CCC(C(C)(C)C)C2 (centres undefined) |  | inactive: 16.6% [at 46.1 µM] |
| COC(=O)C(NC(=O)c1ccc(C)cc1)(Nc1cccc(C)n1)C(F)(F)F (centres undefined) | inconclusive: 17.8 µM [inhibitor, single point] |  |
| Cc1ccc(C(=O)CSc2nnc(-c3ccco3)o2)o1 | inconclusive: 18.3 µM [activator, single point] |  |
| O=C(CCc1nnc(CCCCc2ccccc2)o1)NCCCc1cccnc1 |  | inactive: 0.372% |
| Cc1ccc(S(=O)(=O)N2CCCCC2)cc1NC(=O)COC(=O)c1ccccc1F |  | inactive: 8.32% [at 46.1 µM] |
| COc1ccc(C2c3cc4c(cc3OC(N3CCOCC3)C2C)OCO4)c(OC)c1 (centres undefined) | active: 6.31 µM |  |
| O=[N+]([O-])c1c(Nc2ccccc2O)cc(Cl)c2nonc12 | inconclusive: 31.6 µM [inhibitor, single point] |  |
| CCOC(=O)c1c(C)n(-c2ccccc2)c2ccc(OC(=O)c3cc(OC)cc(OC)c3)cc12 |  | inactive: 16.3% [at 46.1 µM] |
| CCc1ccc(NC(=O)c2cc(C)nn2-c2ccccc2)cc1 | inconclusive: 14.1 µM [inhibitor, single point] |  |
| CC(Cc1ccccc1)C(=O)NCCO (centres undefined) |  | inactive: -0.465% |
| Cc1ccc(Nc2nc(-c3c(C)nc4ccccn34)cs2)cc1 | inconclusive: 35.5 µM [inhibitor, partial curve, poor fit] |  |
| O=C(N/N=C\c1ccc(CNS(=O)(=O)c2ccccc2)o1)C(=O)Nc1ccc(F)cc1 |  | inactive: 5.54% |
| Cc1ccc(/C=N/NC(=O)c2sccc2OCc2ccc(F)cc2)cc1 | inconclusive: 6.31 µM [inhibitor, single point] |  |
| O=C(N/N=C/c1ccc(Br)s1)c1ccco1 | inconclusive: 10 µM [inhibitor, partial curve] |  |
| CCCN(CC1CC1)C(=S)Nc1ccc(Oc2ccccc2)cc1 | inconclusive: 25.1 µM [inhibitor, single point] |  |
| COC(=O)c1ccc(NC(=O)CNS(=O)(=O)c2cccs2)cc1 | inconclusive: 6.51 µM [activator, single point] |  |
| O=C(Nc1ccccc1)N1CCCC2CCCCC21 (centres undefined) | inconclusive: 4.47 µM [activator, full curve] |  |
| Cc1ccc(S(=O)(=O)N2CCN(Cc3ccco3)CC2)c(C)c1 | inconclusive: 3.16 µM [inhibitor, single point] |  |
| COc1ccc(CN(C)C(=O)CC(c2ccccc2)c2ccccc2)cc1 | inconclusive: 10 µM [inhibitor, partial curve, poor fit] |  |
| CCc1cccc2c(C(=O)C(NCCOC)c3ccccc3)c[nH]c12 (centres undefined) | inconclusive: 6.51 µM [inhibitor, full curve, poor fit] |  |
| COc1ccc(Cl)cc1S(=O)(=O)N1CCCC1 | inconclusive: 0.0183 µM [inhibitor, full curve, poor fit] |  |
